Results taken from publication PMC6166128.

Chains of the proteins cited; added tags and fusions are not shown. Lines headed by an entry give the natural chain unless they say otherwise; changes in a name come on top.
UniProt P13382: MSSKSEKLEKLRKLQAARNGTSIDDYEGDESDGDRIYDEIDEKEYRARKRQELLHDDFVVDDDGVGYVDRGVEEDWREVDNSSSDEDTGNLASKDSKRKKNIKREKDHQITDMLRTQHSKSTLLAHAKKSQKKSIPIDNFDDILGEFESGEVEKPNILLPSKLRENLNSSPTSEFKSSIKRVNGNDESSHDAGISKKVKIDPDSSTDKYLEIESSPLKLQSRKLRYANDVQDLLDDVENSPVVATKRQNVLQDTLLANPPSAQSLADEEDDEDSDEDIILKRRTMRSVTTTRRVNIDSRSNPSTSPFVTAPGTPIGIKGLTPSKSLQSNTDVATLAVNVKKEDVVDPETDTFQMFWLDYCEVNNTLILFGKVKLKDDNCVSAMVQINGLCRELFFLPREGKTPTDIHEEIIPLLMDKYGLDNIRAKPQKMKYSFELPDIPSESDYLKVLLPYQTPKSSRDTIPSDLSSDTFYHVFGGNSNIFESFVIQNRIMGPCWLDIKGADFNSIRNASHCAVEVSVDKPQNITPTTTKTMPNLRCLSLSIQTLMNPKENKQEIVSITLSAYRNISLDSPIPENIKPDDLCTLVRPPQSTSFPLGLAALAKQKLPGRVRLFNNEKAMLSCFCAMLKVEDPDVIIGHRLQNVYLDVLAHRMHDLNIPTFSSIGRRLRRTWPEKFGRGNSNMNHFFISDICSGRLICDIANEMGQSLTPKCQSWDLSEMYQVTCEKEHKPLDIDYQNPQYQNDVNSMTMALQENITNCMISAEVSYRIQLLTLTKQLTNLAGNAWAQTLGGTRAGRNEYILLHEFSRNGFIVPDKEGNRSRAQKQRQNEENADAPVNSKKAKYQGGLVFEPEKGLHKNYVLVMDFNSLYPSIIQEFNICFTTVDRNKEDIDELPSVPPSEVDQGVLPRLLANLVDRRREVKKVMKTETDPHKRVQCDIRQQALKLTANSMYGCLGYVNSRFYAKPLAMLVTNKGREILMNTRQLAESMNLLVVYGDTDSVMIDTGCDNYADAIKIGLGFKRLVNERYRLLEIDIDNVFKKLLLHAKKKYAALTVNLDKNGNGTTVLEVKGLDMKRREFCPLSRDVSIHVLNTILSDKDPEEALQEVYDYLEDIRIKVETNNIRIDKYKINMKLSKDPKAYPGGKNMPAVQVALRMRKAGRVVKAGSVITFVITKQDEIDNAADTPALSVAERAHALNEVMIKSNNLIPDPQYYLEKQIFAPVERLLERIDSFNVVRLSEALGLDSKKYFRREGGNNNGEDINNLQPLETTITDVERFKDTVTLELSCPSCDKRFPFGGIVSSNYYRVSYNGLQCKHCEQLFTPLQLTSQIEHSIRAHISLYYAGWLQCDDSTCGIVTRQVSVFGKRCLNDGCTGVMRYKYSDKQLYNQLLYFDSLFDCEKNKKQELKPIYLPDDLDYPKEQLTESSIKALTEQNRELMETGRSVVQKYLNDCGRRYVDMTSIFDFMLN

Molecular target: T1, TAP-Sld5 (CMG helicase component Sld5) (S. cerevisiae) (UniProt Q03406)
T1 sequence: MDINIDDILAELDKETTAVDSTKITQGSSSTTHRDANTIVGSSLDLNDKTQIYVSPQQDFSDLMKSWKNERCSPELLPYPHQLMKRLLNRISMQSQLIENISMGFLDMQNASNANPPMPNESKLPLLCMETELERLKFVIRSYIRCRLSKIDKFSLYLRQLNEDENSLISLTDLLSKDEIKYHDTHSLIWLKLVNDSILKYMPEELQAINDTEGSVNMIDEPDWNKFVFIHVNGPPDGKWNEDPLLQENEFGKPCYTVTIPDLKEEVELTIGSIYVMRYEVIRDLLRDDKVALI
Experiment: co-IP; TAP-Sld5 isolated on IgG-coated magnetic beads from extracts of yeast cells in G1-phase or 30' into S-phase (24°C); Universal nuclease 400 U/ml; 100 mM Hepes-KOH pH 7.9, 100 mM KOAc; associated replisome components by immunoblot

- binding: binds weakly
Substance: Pol1-4A (Pol1 with mutated CIP-box, from pol1-4A cells) (from UniProt P13382)

These are yes or no findings as the source states them, for the method shown. Binding seen in cells or lysates may run through a third protein. Binding can be weak; no strength is given.
